Experimental data from article PMC12171143, “The Arabidopsis E3 ubiquitin ligase PUB13 synergistically interacts with BON1 to regulate plant flowering and immunity” (Frontiers in Plant Science, 2025).
Substitutions are numbered along the chain they refer to. These are yes or no findings as the source states them, for the method shown. For some assays here: Binding seen in cells or lysates may run through a third protein. Some results given as binding are weak or reduced against the parent protein; the word gives no strength. Where a sequence is shown, tags or fusion partners need not be part of it. Blank lines part the entries; values can stand above or below the binder they belong to.

Key:
[1] = biological target: T1, PUB13^V273R, full-length CDS in the BD vector pDBLeu (yeast two-hybrid bait) (Arabidopsis thaliana) (UniProt Q9SNC6); assay: two-hybrid; PUB13^V273R in pDBLeu (BD) as bait, BON1 or prey library in pPC86 (AD); yeast MaV203; SD/-Leu/-Trp/-His medium, 30°C, X-gal assay on YPDA (ProQuest system)
T1 sequence: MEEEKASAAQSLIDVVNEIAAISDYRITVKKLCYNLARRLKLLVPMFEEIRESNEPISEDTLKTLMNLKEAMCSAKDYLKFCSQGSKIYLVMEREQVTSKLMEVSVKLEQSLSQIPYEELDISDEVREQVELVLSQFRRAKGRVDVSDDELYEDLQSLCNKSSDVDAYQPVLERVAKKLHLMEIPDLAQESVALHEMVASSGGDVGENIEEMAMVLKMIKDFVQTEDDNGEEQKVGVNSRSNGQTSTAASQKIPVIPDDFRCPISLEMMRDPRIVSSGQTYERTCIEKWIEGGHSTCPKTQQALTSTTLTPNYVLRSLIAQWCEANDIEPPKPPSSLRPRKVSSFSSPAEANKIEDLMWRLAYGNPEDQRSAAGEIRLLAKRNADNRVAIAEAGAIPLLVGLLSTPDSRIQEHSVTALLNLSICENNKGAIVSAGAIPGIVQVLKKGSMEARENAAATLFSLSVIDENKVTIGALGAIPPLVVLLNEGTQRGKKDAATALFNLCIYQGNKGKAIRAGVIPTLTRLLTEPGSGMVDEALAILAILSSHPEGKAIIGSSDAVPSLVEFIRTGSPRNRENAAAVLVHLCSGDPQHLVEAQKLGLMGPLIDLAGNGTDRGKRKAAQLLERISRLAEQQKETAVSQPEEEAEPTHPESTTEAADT

[2] = biological target: T2, PUB13-Nluc (Arabidopsis thaliana) (UniProt Q9SNC6); assay: split reporter; luciferase complementation imaging (LCI); PUB13-NLuc and BON1-CLuc co-infiltrated with P19 into N. benthamiana leaves, 48 h at 26°C in the dark
T2 sequence: T1 sequence with R273V

- binding [1]: binds
B1: BON1, full-length CDS in the AD vector pPC86 (yeast two-hybrid prey) (protein, UniProt Q941L3 1-578)
chain: MGNCCSDVASGAGATAGVGGSGSSAALGATNDALDYYLKSKGFNGLFSQIELSFSASNLRDRDVLSKSDPMVVVYQKEKDATLSEVFRSEVVLNSLAPKWIKKFIVAYHFETVQTLVFRVYDVDTKFQNSREEMLKLDEQQFLGEATCALSEIITKSTRTSTLELKRKDGFAPQAQPHHGKLIIHAEESLASKISTEIVFRCSNLESKDLFSKSDPFLVVSKIVEHGTPIPVSKTEVRKNDLNPIWKPVFLSVQQVGSKDSPVIIECSDFNSNGKHSLIGKVQKSLSDLEKLHLAGQGINFSLPTGAGQNKVLKSQLFVDKFTETVHHTFLEYLASGFELNFMVAIDFTASNGNPRLPDSLHYIDPSGRLNAYQRAIMDVGEVLQFYDSDKRFPAWGFGARPIDAPVSHCFNLNGSSSYSEVDGIQGIMTSYTSALFNVSLAGPTLFGPVINAAAMIASASLAQGSRKYYVLLIITDGVITDLQETKDALVSASDLPLSILIVGVGGADFKEMEILDADKGERLESSSGRLASRDIVQFVALRDVQYGEISVVQALLAELPSQFLTYMRIRNMKPIPP

- binding [2]: binds
B2: BON1-Cluc (protein, UniProt Q941L3 1-578)
chain: B1 chain
